Results as given in article PMC12865202.
No constants are given. Whether binding was seen depends on the method and setting. Binding seen in cells or lysates may run through a third protein. These calls come from enrichment with a bait or labelling near it, and not all partners need be listed.

The chains behind the UniProt entries cited, without tags or fusion partners.
UniProt Q15759: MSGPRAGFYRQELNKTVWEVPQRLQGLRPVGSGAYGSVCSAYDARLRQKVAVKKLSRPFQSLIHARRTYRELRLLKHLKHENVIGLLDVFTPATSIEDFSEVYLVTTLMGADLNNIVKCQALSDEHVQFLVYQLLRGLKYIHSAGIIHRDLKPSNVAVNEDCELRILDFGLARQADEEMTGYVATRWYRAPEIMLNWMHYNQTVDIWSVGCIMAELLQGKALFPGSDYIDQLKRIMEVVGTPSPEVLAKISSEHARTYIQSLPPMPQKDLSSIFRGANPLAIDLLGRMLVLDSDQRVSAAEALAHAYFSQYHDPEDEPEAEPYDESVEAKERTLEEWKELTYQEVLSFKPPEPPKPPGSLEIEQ

Target: SidBait-p38β (UniProt Q15759)
Assay: proximity labelling; only the target purified

B1: MAP2K4 (enzyme, UniProt P45985 1-399)
chain: MAAPSPSGGGGSGGGSGSGTPGPVGSPAPGHPAVSSMQGKRKALKLNFANPPFKSTARFTLNPNPTGVQNPHIERLRTHSIESSGKLKISPEQHWDFTAEDLKDLGEIGRGAYGSVNKMVHKPSGQIMAVKRIRSTVDEKEQKQLLMDLDVVMRSSDCPYIVQFYGALFREGDCWICMELMSTSFDKFYKYVYSVLDDVIPEEILGKITLATVKALNHLKENLKIIHRDIKPSNILLDRSGNIKLCDFGISGQLVDSIAKTRDAGCRPYMAPERIDPSASRQGYDVRSDVWSLGITLYELATGRFPYPKWNSVFDQLTQVVKGDPPQLSNSEEREFSPSFINFVNLCLTKDESKRPKYKELLKHPFILMYEERAVEVACYVCKILDQMPATPSSPMYVD
  binding: binds
